The assay concerns the target Mist1 (Bhlha15) with an N-terminal biotin acceptor sequence, biotinylated in vivo by E. coli BirA (mouse (endogenous in mouse plasmablasts)) (UniProt Q9QYC3). The experiment in a line: pull-down; streptavidin pulldown of biotinylated Mist1 from nuclear extracts of LPS-differentiated Bhlha15 fl/fl Rosa26 BirA/BirA plasmablasts; E2A detected in the precipitate.

Chains of the proteins cited; added tags and fusions are not shown. Lines headed by an entry give the natural chain unless they say otherwise; changes in a name come on top.
UniProt Q9QYC3: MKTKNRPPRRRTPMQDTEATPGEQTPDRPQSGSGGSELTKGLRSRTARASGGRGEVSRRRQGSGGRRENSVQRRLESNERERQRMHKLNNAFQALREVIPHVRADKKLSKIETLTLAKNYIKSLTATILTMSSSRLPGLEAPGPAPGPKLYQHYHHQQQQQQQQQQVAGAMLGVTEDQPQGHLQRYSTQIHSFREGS
UniProt P15806: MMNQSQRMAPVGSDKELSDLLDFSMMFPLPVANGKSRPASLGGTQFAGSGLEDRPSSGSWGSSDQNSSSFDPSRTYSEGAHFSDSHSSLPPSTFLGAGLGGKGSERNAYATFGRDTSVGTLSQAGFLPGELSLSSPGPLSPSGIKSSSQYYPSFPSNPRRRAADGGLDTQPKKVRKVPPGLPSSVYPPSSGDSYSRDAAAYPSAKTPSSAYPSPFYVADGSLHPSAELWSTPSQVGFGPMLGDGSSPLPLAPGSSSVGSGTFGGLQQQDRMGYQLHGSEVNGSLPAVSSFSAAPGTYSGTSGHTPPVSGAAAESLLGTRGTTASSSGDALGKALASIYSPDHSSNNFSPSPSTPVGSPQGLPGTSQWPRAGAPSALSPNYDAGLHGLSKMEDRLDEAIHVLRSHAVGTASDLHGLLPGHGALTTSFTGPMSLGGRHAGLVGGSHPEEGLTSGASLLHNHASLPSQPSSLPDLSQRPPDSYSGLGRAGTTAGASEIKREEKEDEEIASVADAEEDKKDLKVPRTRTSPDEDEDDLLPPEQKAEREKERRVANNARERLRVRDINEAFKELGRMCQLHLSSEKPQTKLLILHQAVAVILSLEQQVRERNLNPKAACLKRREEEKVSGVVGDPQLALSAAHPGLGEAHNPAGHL

These are yes or no findings as the source states them, for the method shown. Binding seen in cells or lysates may run through a third protein. Some entries that bind do so weakly or less than the wild type.

As for E2A (Tcf3) (from UniProt P15806 1-651), the binding entry is reported as “binds”.

For the origin of these results see publication PMC9811352.
